Measurements taken from the supplement of paper PMC7661543.
The effect of the compound repeats well; differences between the knockouts mostly do not.

Test system: HCC-38
Test: relative cell number vs DMSO control (72 h) (% of DMSO); higher = less growth inhibition (more cells)
Procedure: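 QMAP-Seq: a pool of 5 breast cancer cell lines (ZR-75-1, SKBR3, HCC-38, MDA-MB-231, BT-20), each carrying 12 doxycycline-inducible Cas9 sgRNA perturbations (11 knockouts plus non-targeting sgNT), was treated with compounds for 72 h at four 10-fold doses (10 nM-10 uM or 1 nM-1 uM range). Barcodes were amplified and sequenced, and cell number was interpolated from 293T spike-in standard curves. The result is expressed as % of the median of DMSO wells. Two biological replicates.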

Cc1ncc([N+](=O)[O-])n1CC(O)CCl (configuration not stated) [Ornidazole]
Details | relative cell number
sgRNA knockout: sgATF3, 10 nM | 92
sgRNA knockout: sgATF3, 100 nM | 92
sgRNA knockout: sgATF3, 1000 nM | 105.5
sgRNA knockout: sgATF3, 10000 nM | 90.9
sgRNA knockout: sgATF4, 10 nM | 91.8
sgRNA knockout: sgATF4, 100 nM | 91
sgRNA knockout: sgATF4, 1000 nM | 108
sgRNA knockout: sgATF4, 10000 nM | 90.65
sgRNA knockout: sgATF6, 10 nM | 95.9
sgRNA knockout: sgATF6, 100 nM | 114
sgRNA knockout: sgATF6, 1000 nM | 120
sgRNA knockout: sgATF6, 10000 nM | 113
sgRNA knockout: sgATG7, 10 nM | 92.6
sgRNA knockout: sgATG7, 100 nM | 91.6
sgRNA knockout: sgATG7, 1000 nM | 121
sgRNA knockout: sgATG7, 10000 nM | 92.3
sgRNA knockout: sgERN1, 10 nM | 81.6
sgRNA knockout: sgERN1, 100 nM | 100
sgRNA knockout: sgERN1, 1000 nM | 114
sgRNA knockout: sgERN1, 10000 nM | 89.6
sgRNA knockout: sgHSF1, 10 nM | 96.9
sgRNA knockout: sgHSF1, 100 nM | 82.6
sgRNA knockout: sgHSF1, 1000 nM | 103
sgRNA knockout: sgHSF1, 10000 nM | 105
sgRNA knockout: sgHSF2, 10 nM | 92.8
sgRNA knockout: sgHSF2, 100 nM | 106
sgRNA knockout: sgHSF2, 1000 nM | 125
sgRNA knockout: sgHSF2, 10000 nM | 101
sgRNA knockout: sgKEAP1, 10 nM | 90
sgRNA knockout: sgKEAP1, 100 nM | 105
sgRNA knockout: sgKEAP1, 1000 nM | 97.8
sgRNA knockout: sgKEAP1, 10000 nM | 104
sgRNA knockout: sgNFE2L2, 10 nM | 82.4
sgRNA knockout: sgNFE2L2, 100 nM | 96.8
sgRNA knockout: sgNFE2L2, 1000 nM | 110
sgRNA knockout: sgNFE2L2, 10000 nM | 84.7
sgRNA knockout: sgSLC35F2, 10 nM | 88.499
sgRNA knockout: sgSLC35F2, 100 nM | 100
sgRNA knockout: sgSLC35F2, 1000 nM | 110
sgRNA knockout: sgSLC35F2, 10000 nM | 96.6
sgRNA knockout: sgXBP1, 10 nM | 86.1
sgRNA knockout: sgXBP1, 100 nM | 95
sgRNA knockout: sgXBP1, 1000 nM | 115
sgRNA knockout: sgXBP1, 10000 nM | 85.2

O=P1(NCCCl)OCCCN1CCCl (configuration not stated) [Ifosfamide]
Details | relative cell number
sgRNA knockout: sgATF3, 10 nM | 112.3
sgRNA knockout: sgATF3, 100 nM | 98.7
sgRNA knockout: sgATF3, 1000 nM | 123
sgRNA knockout: sgATF3, 10000 nM | 95.1
sgRNA knockout: sgATF4, 10 nM | 113
sgRNA knockout: sgATF4, 100 nM | 103
sgRNA knockout: sgATF4, 1000 nM | 118
sgRNA knockout: sgATF4, 10000 nM | 95.6
sgRNA knockout: sgATF6, 10 nM | 91.4
sgRNA knockout: sgATF6, 100 nM | 93.2
sgRNA knockout: sgATF6, 1000 nM | 112
sgRNA knockout: sgATF6, 10000 nM | 106
sgRNA knockout: sgATG7, 10 nM | 118
sgRNA knockout: sgATG7, 100 nM | 91
sgRNA knockout: sgATG7, 1000 nM | 107
sgRNA knockout: sgATG7, 10000 nM | 87.8
sgRNA knockout: sgERN1, 10 nM | 104
sgRNA knockout: sgERN1, 100 nM | 96.7
sgRNA knockout: sgERN1, 1000 nM | 113
sgRNA knockout: sgERN1, 10000 nM | 106
sgRNA knockout: sgHSF1, 10 nM | 105
sgRNA knockout: sgHSF1, 100 nM | 88.6
sgRNA knockout: sgHSF1, 1000 nM | 92.8
sgRNA knockout: sgHSF1, 10000 nM | 108.8
sgRNA knockout: sgHSF2, 10 nM | 102
sgRNA knockout: sgHSF2, 100 nM | 99.8
sgRNA knockout: sgHSF2, 1000 nM | 120
sgRNA knockout: sgHSF2, 10000 nM | 92.3
sgRNA knockout: sgKEAP1, 10 nM | 89.2
sgRNA knockout: sgKEAP1, 100 nM | 122
sgRNA knockout: sgKEAP1, 1000 nM | 95
sgRNA knockout: sgKEAP1, 10000 nM | 106
sgRNA knockout: sgNFE2L2, 10 nM | 111
sgRNA knockout: sgNFE2L2, 100 nM | 92.7
sgRNA knockout: sgNFE2L2, 1000 nM | 116
sgRNA knockout: sgNFE2L2, 10000 nM | 91
sgRNA knockout: sgSLC35F2, 10 nM | 111
sgRNA knockout: sgSLC35F2, 100 nM | 93.5
sgRNA knockout: sgSLC35F2, 1000 nM | 115
sgRNA knockout: sgSLC35F2, 10000 nM | 100
sgRNA knockout: sgXBP1, 10 nM | 108
sgRNA knockout: sgXBP1, 100 nM | 91.6
sgRNA knockout: sgXBP1, 1000 nM | 106
sgRNA knockout: sgXBP1, 10000 nM | 89.4

CCC(C)(C)C(=O)O[C@H]1C[C@@H](C)C=C2C=C[C@H](C)[C@H](CC[C@@H]3C[C@@H](O)CC(=O)O3)[C@H]21 [Simvastatin]
Details | relative cell number
sgRNA knockout: sgATF3, 10 nM | 93.1
sgRNA knockout: sgATF3, 100 nM | 101
sgRNA knockout: sgATF3, 1000 nM | 98.9
sgRNA knockout: sgATF3, 10000 nM | 95.5
sgRNA knockout: sgATF4, 10 nM | 89.9
sgRNA knockout: sgATF4, 100 nM | 95
sgRNA knockout: sgATF4, 1000 nM | 106
sgRNA knockout: sgATF4, 10000 nM | 85.6
sgRNA knockout: sgATF6, 10 nM | 98.2
sgRNA knockout: sgATF6, 100 nM | 90.4
sgRNA knockout: sgATF6, 1000 nM | 99
sgRNA knockout: sgATF6, 10000 nM | 86
sgRNA knockout: sgATG7, 10 nM | 90
sgRNA knockout: sgATG7, 100 nM | 99.8
sgRNA knockout: sgATG7, 1000 nM | 94.8
sgRNA knockout: sgATG7, 10000 nM | 81.3
sgRNA knockout: sgERN1, 10 nM | 91.9
sgRNA knockout: sgERN1, 100 nM | 102
sgRNA knockout: sgERN1, 1000 nM | 96.22
sgRNA knockout: sgERN1, 10000 nM | 95.5
sgRNA knockout: sgHSF1, 10 nM | 93.8
sgRNA knockout: sgHSF1, 100 nM | 79.3
sgRNA knockout: sgHSF1, 1000 nM | 95.6
sgRNA knockout: sgHSF1, 10000 nM | 117
sgRNA knockout: sgHSF2, 10 nM | 103
sgRNA knockout: sgHSF2, 100 nM | 87.5
sgRNA knockout: sgHSF2, 1000 nM | 97
sgRNA knockout: sgHSF2, 10000 nM | 88.6
sgRNA knockout: sgKEAP1, 10 nM | 99.8
sgRNA knockout: sgKEAP1, 100 nM | 95.6
sgRNA knockout: sgKEAP1, 1000 nM | 81.4
sgRNA knockout: sgKEAP1, 10000 nM | 98.2
sgRNA knockout: sgNFE2L2, 10 nM | 80
sgRNA knockout: sgNFE2L2, 100 nM | 83.9
sgRNA knockout: sgNFE2L2, 1000 nM | 94.4
sgRNA knockout: sgNFE2L2, 10000 nM | 78.3
sgRNA knockout: sgSLC35F2, 10 nM | 97.1
sgRNA knockout: sgSLC35F2, 100 nM | 94
sgRNA knockout: sgSLC35F2, 1000 nM | 96.8
sgRNA knockout: sgSLC35F2, 10000 nM | 95.1
sgRNA knockout: sgXBP1, 10 nM | 85.28
sgRNA knockout: sgXBP1, 100 nM | 94.6
sgRNA knockout: sgXBP1, 1000 nM | 106.5
sgRNA knockout: sgXBP1, 10000 nM | 83.3
